Results on two molecules are retold here after paper PMC10898606.

Experiment [1] has as its target CDC123-nLUC (Arabidopsis thaliana). In words: split reporter; split luciferase complementation (SLCA): CDC123-nLUC with eIF2 subunit-cLUC, transient expression in N. benthamiana for 40 hr.
In experiment [2] the target is CDC123-nYFP (Arabidopsis thaliana). In words: split reporter; BiFC: CDC123-nYFP with eIF2 subunit-cYFP, transient expression in N. benthamiana for 40 hr, laser scanning microscopy.

No constants are given. Whether binding was seen depends on the method and setting. In cells and extracts the contact can be indirect. Binding calls can cover weak binding; strength is not graded here. Tags and fused reporters may be left off the sequences shown.

B1: eIF2β-cLUC (protein, UniProt Q41969 1-268)
chain: MADEINEIREEQEQLAPFDPSKKKKKKKVVIQEPVEDLAESSQTEKSDSLPVNDGLESSFTGMKKKKKKPTESSLLNNESVDAGEDLDEIANDEQEGEEGIVLQQRYPWEGSERDYIYDELLGRVFNILRENNPELAGDRRRTVMRPPQVLREGTKKTVFVNFMDLCKTMHRQPDHVMQYLLAELGTSGSLDGQQRLVVKGRFAPKNFEGILRRYITDYVICLGCKSPDTILSKENRLFFLRCEKCGSQRSVAPIKTGFVARVSRRKT
As for B1, the binding result in experiment [1] is recorded as “binds”.

B2: eIF2β-cYFP (protein, UniProt Q41969 1-268)
chain: MADEINEIREEQEQLAPFDPSKKKKKKKVVIQEPVEDLAESSQTEKSDSLPVNDGLESSFTGMKKKKKKPTESSLLNNESVDAGEDLDEIANDEQEGEEGIVLQQRYPWEGSERDYIYDELLGRVFNILRENNPELAGDRRRTVMRPPQVLREGTKKTVFVNFMDLCKTMHRQPDHVMQYLLAELGTSGSLDGQQRLVVKGRFAPKNFEGILRRYITDYVICLGCKSPDTILSKENRLFFLRCEKCGSQRSVAPIKTGFVARVSRRKT
Consider B2, for which the binding entry in experiment [2] is listed as “binds”.
